Measured values reported in EP1739169B1, “Clinical diagnostic reagent comprising glucose 6-phosphate dehydrogenase (G6PDH), method for stabilizing G6PDH, and use of a stabilizer for G6PDH” (SYSMEX CORPORATION, priority 2005, dated 2007).
For at least one compound, name, drawing or mass did not settle the structure.

Key:
[1] = system: G6PDH; assay: Residual activity of G6PDH in CK activity measurement reagent after heat loading at 37°C (NADPH formation, absorbance at 340 nm); type: biochemical; details: heat loading at 37°C for 5 days; for G6PDH residual activity: relative to reagent without heat loading
Protocol: (§1) Aminoguanidine was added to the above composition to prepare three kinds of reagents different in the concentration of aminoguanidine. The concentrations of aminoguanidine in these reagents were 10 mM, 20 mM and 40 mM respectively. After these reagents were subjected to heat loading at 37°C for 5 days, the residual activity of G6PDH was measured and the residual amount of SH group in NAC was quantified.
The activity of G6PDH was measured in the following manner. First, a solution wherein 20 mM magnesium chloride, 0.6 mM NADP and 0.5 mM G6P were dissolved in a solution containing 0.1 M glycylglycine (pH 8.5) was prepared. When 300 µl of this solution was mixed with 1 µl of the first reagent, NADPH is formed by the activity of G6DPH. When NADPH is formed, the absorbance at a wavelength of 340 nm is increased, and thus this increase is measured to determine the activity of G6PDH.
(§2) In Table 1, the residual activity of G6PDH and the residual amount of SH group of NAC are expressed in percentage. These values are those relative to the activity of G6PDH and the amount of SH group of NAC in each reagent which without subjection to heat loading, was measured by the method described in Example 1. Table 1 […]

[2] = Residual amount of SH group of NAC in the reagent after heat loading at 37°C (quantification with DTNB, absorbance at 412 nm); type: physicochemical; details: heat loading at 37°C for 5 days; for SH group residual amount: relative to reagent without heat loading
Protocol: as §1
The quantification of SH group was carried out by using DTNB (5,5'-dithiobis(2-nitrobenzoic acid)). When DTNB is added to the reagent where NAC is present, disulfide linkages corresponding to the amount of SH groups in the NAC are cleaved to generate 5-mercapto-2-nitrobenzoic acid. When 5-mercapto-2-nitrobenzoic acid is generated, the absorbance at a wavelength of 412 nm is increased, and thus this increase can be measured to determine the amount of SH groups in the reagent.
as §2

NN [hydrazine]
activity of G6PDH after heat loading (in words) [1]: the reduction of G6PDH activity was suppressed to a certain degree | G6PDH residual activity ([1]; stabilizer 20 mM in reagent): 87.8% | G6PDH residual activity ([1]; stabilizer 40 mM in reagent): 91.9% | amount of SH group of NAC after heat loading (in words) [2]: NAC was deteriorated thus significantly reducing the amount of SH group | SH group residual amount ([2]; stabilizer 20 mM in reagent): 54.7% | SH group residual amount ([2]; stabilizer 40 mM in reagent): 56.2%
